Laboratory results as given in the supplement of paper PMC10849652.
The list shows a part of the results.

The chains behind the UniProt entries cited, without tags or fusion partners. Where a name states a change or a piece, a line headed by the entry shows the natural chain unless it says otherwise.
UniProt O75317, whole entry, looked up: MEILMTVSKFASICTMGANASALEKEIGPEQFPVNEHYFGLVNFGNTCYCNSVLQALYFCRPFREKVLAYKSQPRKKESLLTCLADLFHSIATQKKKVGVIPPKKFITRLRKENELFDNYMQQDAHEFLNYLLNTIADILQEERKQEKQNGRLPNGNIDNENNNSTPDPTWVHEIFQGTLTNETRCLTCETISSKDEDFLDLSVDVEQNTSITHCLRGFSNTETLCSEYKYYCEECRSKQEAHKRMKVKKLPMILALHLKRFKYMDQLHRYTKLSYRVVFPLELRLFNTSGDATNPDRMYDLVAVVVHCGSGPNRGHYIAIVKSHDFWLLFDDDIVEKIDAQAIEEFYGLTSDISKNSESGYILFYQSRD
UniProt Q9UDW1: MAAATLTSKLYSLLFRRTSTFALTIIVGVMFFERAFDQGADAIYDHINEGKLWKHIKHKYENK
UniProt O60287: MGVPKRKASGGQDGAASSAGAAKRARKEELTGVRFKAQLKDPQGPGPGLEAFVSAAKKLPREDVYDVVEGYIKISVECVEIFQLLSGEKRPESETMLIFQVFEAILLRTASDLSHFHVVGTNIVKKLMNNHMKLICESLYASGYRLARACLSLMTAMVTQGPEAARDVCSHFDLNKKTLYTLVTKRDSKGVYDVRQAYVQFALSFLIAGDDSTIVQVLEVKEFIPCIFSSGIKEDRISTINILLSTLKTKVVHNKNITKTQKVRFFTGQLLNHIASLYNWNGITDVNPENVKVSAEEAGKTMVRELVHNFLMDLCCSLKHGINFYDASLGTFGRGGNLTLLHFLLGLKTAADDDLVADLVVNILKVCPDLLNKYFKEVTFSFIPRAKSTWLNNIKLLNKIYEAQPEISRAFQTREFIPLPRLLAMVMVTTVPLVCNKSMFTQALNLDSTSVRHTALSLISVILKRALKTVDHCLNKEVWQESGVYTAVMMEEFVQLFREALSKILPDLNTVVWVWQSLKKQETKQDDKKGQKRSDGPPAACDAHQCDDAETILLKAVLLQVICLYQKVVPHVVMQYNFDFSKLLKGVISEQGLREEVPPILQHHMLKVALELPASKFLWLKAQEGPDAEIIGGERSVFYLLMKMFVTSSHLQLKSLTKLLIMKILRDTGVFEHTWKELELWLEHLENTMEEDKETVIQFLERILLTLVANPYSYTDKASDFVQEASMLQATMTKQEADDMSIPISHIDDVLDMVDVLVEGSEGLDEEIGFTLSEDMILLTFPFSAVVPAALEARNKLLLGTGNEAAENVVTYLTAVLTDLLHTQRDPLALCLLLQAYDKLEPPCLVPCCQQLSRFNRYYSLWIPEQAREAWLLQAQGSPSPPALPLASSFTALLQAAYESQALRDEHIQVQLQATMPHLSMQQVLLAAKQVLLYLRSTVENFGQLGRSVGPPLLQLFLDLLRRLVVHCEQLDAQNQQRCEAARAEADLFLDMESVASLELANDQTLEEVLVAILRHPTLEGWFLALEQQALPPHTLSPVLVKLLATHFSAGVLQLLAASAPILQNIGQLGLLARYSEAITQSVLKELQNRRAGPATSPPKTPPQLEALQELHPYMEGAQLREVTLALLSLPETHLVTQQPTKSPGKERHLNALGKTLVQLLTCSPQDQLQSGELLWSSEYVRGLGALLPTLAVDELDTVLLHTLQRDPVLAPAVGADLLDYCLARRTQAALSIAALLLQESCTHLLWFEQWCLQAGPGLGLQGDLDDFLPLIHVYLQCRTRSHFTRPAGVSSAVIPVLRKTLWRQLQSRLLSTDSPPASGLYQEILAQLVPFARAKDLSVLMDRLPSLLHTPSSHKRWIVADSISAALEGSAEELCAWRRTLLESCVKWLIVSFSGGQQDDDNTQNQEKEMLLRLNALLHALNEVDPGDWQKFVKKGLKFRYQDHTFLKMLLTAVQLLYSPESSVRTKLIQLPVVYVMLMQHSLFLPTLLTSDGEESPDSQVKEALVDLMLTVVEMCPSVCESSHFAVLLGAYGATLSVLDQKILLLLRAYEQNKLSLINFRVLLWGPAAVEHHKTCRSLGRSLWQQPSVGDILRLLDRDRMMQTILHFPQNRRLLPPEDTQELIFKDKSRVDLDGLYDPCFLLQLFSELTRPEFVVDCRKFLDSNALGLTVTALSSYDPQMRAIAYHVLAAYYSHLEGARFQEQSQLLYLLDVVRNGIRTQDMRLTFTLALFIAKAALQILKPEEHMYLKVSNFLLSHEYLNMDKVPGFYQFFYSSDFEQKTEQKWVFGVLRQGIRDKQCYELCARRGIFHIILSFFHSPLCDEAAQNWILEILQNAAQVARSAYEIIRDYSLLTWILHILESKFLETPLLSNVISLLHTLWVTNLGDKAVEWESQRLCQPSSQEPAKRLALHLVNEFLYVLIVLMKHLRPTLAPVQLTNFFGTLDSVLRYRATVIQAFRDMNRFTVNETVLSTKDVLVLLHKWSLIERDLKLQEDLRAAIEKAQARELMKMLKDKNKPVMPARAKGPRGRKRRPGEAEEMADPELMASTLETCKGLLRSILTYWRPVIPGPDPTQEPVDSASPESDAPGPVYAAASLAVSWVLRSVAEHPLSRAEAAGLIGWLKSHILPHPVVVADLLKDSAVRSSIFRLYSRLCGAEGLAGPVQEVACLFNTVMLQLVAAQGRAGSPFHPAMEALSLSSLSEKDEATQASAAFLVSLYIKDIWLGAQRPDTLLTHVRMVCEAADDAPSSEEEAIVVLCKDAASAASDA
UniProt O15240: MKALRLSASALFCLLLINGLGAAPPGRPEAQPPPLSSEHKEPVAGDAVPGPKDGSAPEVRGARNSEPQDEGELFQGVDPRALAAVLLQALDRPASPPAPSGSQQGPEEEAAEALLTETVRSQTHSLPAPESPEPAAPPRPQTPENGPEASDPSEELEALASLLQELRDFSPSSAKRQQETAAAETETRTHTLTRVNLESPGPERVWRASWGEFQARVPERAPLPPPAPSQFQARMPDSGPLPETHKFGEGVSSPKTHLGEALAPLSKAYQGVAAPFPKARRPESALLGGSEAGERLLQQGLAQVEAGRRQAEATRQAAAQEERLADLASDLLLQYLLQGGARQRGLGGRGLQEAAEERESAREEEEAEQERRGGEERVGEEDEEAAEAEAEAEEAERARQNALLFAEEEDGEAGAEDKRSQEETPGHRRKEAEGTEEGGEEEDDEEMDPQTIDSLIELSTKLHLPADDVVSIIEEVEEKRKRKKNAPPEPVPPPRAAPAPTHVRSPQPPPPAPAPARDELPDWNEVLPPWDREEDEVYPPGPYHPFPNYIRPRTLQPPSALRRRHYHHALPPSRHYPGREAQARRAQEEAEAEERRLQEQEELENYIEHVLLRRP
UniProt O75385: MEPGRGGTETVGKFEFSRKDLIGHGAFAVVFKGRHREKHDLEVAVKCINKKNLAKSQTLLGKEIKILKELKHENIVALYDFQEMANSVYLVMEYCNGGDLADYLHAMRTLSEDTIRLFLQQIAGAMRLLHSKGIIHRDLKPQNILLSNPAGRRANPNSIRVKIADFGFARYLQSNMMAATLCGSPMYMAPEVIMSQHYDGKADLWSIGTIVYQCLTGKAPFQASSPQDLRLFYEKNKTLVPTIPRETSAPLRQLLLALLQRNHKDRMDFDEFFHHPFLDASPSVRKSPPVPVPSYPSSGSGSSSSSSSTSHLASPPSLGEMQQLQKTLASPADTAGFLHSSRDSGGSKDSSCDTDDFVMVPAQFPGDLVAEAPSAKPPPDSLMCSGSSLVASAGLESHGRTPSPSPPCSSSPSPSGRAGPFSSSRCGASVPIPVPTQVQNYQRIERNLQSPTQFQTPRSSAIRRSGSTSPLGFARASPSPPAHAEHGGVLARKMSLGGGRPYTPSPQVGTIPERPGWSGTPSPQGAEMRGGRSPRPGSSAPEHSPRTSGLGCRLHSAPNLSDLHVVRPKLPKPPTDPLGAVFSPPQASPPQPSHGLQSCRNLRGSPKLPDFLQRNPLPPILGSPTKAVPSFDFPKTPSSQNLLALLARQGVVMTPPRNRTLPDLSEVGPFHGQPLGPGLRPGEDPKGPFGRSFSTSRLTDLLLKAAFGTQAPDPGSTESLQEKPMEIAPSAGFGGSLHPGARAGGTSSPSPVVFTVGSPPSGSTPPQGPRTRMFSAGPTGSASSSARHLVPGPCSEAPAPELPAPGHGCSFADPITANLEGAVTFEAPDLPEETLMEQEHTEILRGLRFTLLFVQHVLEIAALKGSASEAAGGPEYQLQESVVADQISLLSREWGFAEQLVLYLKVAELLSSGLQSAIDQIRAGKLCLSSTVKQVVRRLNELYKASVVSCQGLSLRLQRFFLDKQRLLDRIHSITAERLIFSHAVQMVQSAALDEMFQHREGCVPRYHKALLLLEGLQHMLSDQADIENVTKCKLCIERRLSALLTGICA
UniProt Q14135: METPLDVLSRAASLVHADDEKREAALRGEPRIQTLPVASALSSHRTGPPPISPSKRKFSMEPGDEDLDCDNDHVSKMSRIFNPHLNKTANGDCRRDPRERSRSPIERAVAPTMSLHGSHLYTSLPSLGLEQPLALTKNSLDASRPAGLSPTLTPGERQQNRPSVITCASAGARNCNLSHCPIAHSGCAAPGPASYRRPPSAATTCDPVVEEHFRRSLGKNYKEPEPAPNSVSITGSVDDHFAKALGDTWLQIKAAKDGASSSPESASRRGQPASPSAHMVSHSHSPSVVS
UniProt P55851: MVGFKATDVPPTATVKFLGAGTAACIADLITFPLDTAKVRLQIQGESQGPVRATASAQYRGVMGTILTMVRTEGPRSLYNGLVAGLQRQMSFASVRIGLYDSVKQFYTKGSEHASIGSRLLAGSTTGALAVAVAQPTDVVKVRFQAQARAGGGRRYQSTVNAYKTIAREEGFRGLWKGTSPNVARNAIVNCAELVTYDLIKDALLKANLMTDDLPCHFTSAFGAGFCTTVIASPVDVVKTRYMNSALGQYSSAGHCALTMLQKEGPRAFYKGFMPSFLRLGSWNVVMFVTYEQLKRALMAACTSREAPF

Compound: C#Cc1cccc(Nc2ncnc3cc(OCCOC)c(OCCOC)cc23)c1 [erlotinib]
Assay: log2 fold change, soluble protein after heating vs DMSO (PISA); higher = thermal stabilisation; K562 lysate, 10 uM; active = over 0.2 and 3.5 SD of the protein, either way, in both replicates (recomputed)
Summary of the method: (§1)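 Quantification was by TMTpro 16plex LC-MS/MS with equalised channel sums, applied to the supernatant after 21,000xg for 90 min. Samples were crude K562 extract at 1 mg/mL protein in PBS pH 7.4 with 1 mM MgCl2, treated with 10 μM compound for 30 min, heated for 3 min across 48°C-58°C, pooled and brought to 0.5% NP-40 at 4°C. Values are log-two fold changes in thermal stability relative to solvent controls, from duplicates.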

Row | Target | log2 fold change
1 | UPF3A (UniProt Q9H1J1) | inactive: 0.054
2 | USP40 isoform 3 (UniProt Q9NVE5) | inactive: 0.045
3 | UTRN isoform 2 (UniProt P46939) | inactive: -0.222
4 | VANGL2 (UniProt Q9ULK5) | inactive: 0.111
5 | USP12 (UniProt O75317) | inactive: -0.064
6 | USF3 (UniProt Q68DE3) | inactive: 0.025
7 | UNC119 (UniProt Q13432) | inactive: -0.041
8 | UTP23 (UniProt Q9BRU9) | inactive: 0.032
9 | UQCR10 (UniProt Q9UDW1) | inactive: -0.022
10 | URB1 (UniProt O60287) | inactive: -0.023
11 | USP30 (UniProt Q70CQ3) | inactive: 0.144
12 | URI1 isoform 4 (UniProt O94763) | inactive: -0.021
13 | USP20 (UniProt Q9Y2K6) | inactive: 0.024
14 | VCPKMT (UniProt Q9H867) | inactive: 0.157
15 | VCX3B (UniProt Q9H321) | inactive: -0.066
16 | VGF (UniProt O15240) | inactive: 0.213
17 | UNC13A (UniProt Q9UPW8) | inactive: 0.069
18 | VASN (UniProt Q6EMK4) | active: -0.644
19 | ULK1 (UniProt O75385) | inactive: 0.014
20 | UNG (UniProt P13051) | inactive: -0.186
21 | VGLL4 isoform 4 (UniProt Q14135) | inactive: 0.004

Compound: C/C(=N\NC(=O)C1=CC(=CC=C1)S(=O)(=O)N2CCOCC2)/C3=C(C=CC(=C3)Cl)O
Assay: as above
Summary of the method: as §1

Row | Target | log2 fold change
22 | USP37 (UniProt Q86T82) | inactive: 0.229
23 | USP12 (UniProt O75317) | inactive: 0.137
24 | UHRF2 (UniProt Q96PU4) | inactive: -0.132
25 | UCP2 (UniProt P55851) | inactive: 0.217
26 | UROD (UniProt H0Y5R6) | inactive: -0.053
27 | USP38 (UniProt Q8NB14) | inactive: -0.079
28 | USP6NL isoform 2 (UniProt Q92738) | inactive: -0.233
29 | UQCR10 (UniProt Q9UDW1) | inactive: -0.02
30 | URB1 (UniProt O60287) | inactive: 0.143
31 | VAV2 (UniProt P52735) | inactive: 0.065
32 | USP36 (UniProt Q9P275) | inactive: -0.026
33 | UTP11 (UniProt Q9Y3A2) | inactive: -0.005
34 | URGCP (UniProt Q8TCY9) | inactive: -0.024
35 | URB2 (UniProt Q14146) | inactive: -0.084
36 | VGF (UniProt O15240) | inactive: 0.105
37 | ULK1 (UniProt O75385) | inactive: -0.073
38 | UNKL (UniProt E9PDK2) | inactive: -0.088

Compound: C1=CC(=CC=C1C2=NC3=C(N2)C=C(C=C3)C(=O)N)OC4=CC=C(C=C4)Cl
Assay: as above
Summary of the method: as §1

Row | Target | log2 fold change
39 | UPF3A (UniProt Q9H1J1) | inactive: -0.08
40 | USP40 isoform 3 (UniProt Q9NVE5) | inactive: -0.024
41 | UTRN isoform 2 (UniProt P46939) | inactive: 0.247
42 | VANGL2 (UniProt Q9ULK5) | inactive: -0.013
43 | USP12 (UniProt O75317) | inactive: 0.107
44 | USF3 (UniProt Q68DE3) | inactive: 0.02
45 | UNC119 (UniProt Q13432) | inactive: 0.015
46 | UTP23 (UniProt Q9BRU9) | inactive: 0.054
47 | UQCR10 (UniProt Q9UDW1) | inactive: -0.05
48 | URB1 (UniProt O60287) | inactive: -0.02
49 | USP30 (UniProt Q70CQ3) | inactive: -0.026
50 | URI1 isoform 4 (UniProt O94763) | inactive: 0.06
51 | USP20 (UniProt Q9Y2K6) | inactive: 0.01
52 | VCPKMT (UniProt Q9H867) | inactive: 0.164
53 | VCX3B (UniProt Q9H321) | inactive: 0.036
54 | VGF (UniProt O15240) | inactive: 0.279
55 | UNC13A (UniProt Q9UPW8) | inactive: 0.039
56 | VASN (UniProt Q6EMK4) | inactive: 0.071
57 | ULK1 (UniProt O75385) | inactive: -0.12
58 | UNG (UniProt P13051) | inactive: -0.012
59 | VGLL4 isoform 4 (UniProt Q14135) | inactive: -0.015

Compound: C1=CC2=C(C=CC(=C2)/C=C\3/C(=O)NC(=NCC4=CC=CS4)S3)N=C1
Assay: as above
Summary of the method: as §1

Row | Target | log2 fold change
60 | USP37 (UniProt Q86T82) | inactive: 0.084
61 | USP12 (UniProt O75317) | inactive: -0.019
62 | UHRF2 (UniProt Q96PU4) | inactive: 0.024
63 | UCP2 (UniProt P55851) | inactive: -0.114
64 | UROD (UniProt H0Y5R6) | inactive: -0.339
65 | USP38 (UniProt Q8NB14) | inactive: 0.137
66 | USP6NL isoform 2 (UniProt Q92738) | inactive: 0.063
67 | UQCR10 (UniProt Q9UDW1) | inactive: 0.03
68 | URB1 (UniProt O60287) | inactive: 0.018
69 | VAV2 (UniProt P52735) | inactive: 0.066
70 | USP36 (UniProt Q9P275) | inactive: -0.22
71 | UTP11 (UniProt Q9Y3A2) | inactive: -0.132
72 | URGCP (UniProt Q8TCY9) | inactive: -0.075
73 | URB2 (UniProt Q14146) | inactive: -0.133
74 | VGF (UniProt O15240) | inactive: -0.04
75 | ULK1 (UniProt O75385) | inactive: -0.122
76 | UNKL (UniProt E9PDK2) | inactive: 0.166
